Results are given in words; binding and its absence hold for the method and conditions named. Binding seen in cells or lysates may run through a third protein. Some binding calls cover weakened binding; strength is not graded here.
Legend:
[1] = target: cellular prion protein PrP^c (human (endogenous in Caco-2/TC7)) (UniProt P04156); assay: co-IP
[2] = target: Desmoglein 2 (human (endogenous in Caco-2/TC7)) (UniProt Q14126); assay: co-IP

Row | Substance | binding [1] | binding [2]
1 | annexin A2 (from UniProt P07355 1-339) | binds | –
2 | cellular prion protein PrP^c (from UniProt P04156 23-230) | – | binds
